Results reported in PubChem BioAssay AID330 (DTP/NCI, 2004).
The list does not hold the whole screen: it gathers tests that were run many times, whatever their T/C, doses with no T/C, and many T/C values between a quarter and a half above the control. Other doses and runs of a compound stand elsewhere. T/C: endpoint of the treated group in % of that of the vehicle group. Some entries give survivors of the animals treated and no T/C: the source holds a T/C of zero for them, seemingly a mark for toxic or unscored doses. Some doses without a T/C left all or most animals alive at the check, yet need not have been tolerated: the source hardly ever lists a survival T/C far under the control, and the zero likely stands for such cases as well. Survivors were counted at the toxicity check, usually on the fifth day, unless a day is given; later deaths do not show. Schedules are NCI's codes, taken here to give the interval after Q, in days (D) or hours (H), and the number of doses after X. Where survival is the endpoint, the PubChem record calls one and a half times the control and up active, and a quarter to a half above the control has no call in these data; cut-offs in other NCI protocols can differ. Some T/C values carry the count of animals alive at the toxicity check (mostly the fifth day); where none is given, no animal had died by that day.

System: P388 leukemia ip, CD2F1 mice, survival T/C
Assay: NCI In Vivo Anticancer Drug Screen. Data for tumor model P388 Leukemia (intraperitoneal) in CD2F1 (CDF1) mice
Details: T/C endpoint: median survival time, higher T/C = longer survival
[1] = dose: 200.0 mg/kg/injection, schedule: Q01DX009 (ip), vehicle: saline with Tween-80
[2] = dose: 25.0 mg/kg/injection, schedule: Q01DX009 (ip), vehicle: Klucel (hydroxypropylcellulose) (HPC)
[3] = dose: 50.0 mg/kg/injection, schedule: Q01DX009 (ip), vehicle: Klucel (hydroxypropylcellulose) (HPC)
[4] = dose: 100.0 mg/kg/injection, schedule: Q01DX009 (ip), vehicle: Klucel (hydroxypropylcellulose) (HPC)
[5] = dose: 200.0 mg/kg/injection, schedule: Q01DX009 (ip), vehicle: Klucel (hydroxypropylcellulose) (HPC)
[6] = dose: 50.0 mg/kg/injection, schedule: Q01DX005 (ip), vehicle: saline with Tween-80
[7] = dose: 100.0 mg/kg/injection, schedule: Q01DX005 (ip), vehicle: saline with Tween-80
[8] = dose: 200.0 mg/kg/injection, schedule: Q01DX005 (ip), vehicle: saline with Tween-80

## Clc1ccc(CC(Cn2ccnc2)c2ccccc2Cl)cc1 (stereo not given)
[1]
  survivor count: 5 of 6

## C#CC[N+]1(C)CCC=C(C(=O)OC)C1 (stereo not given)
dose: 50.0 mg/kg/injection, schedule: Q01DX009 (ip), vehicle: saline
  survivor count: 6 of 6
dose: 100.0 mg/kg/injection, schedule: Q01DX009 (ip), vehicle: saline
  survivor count: 5 of 6
dose: 200.0 mg/kg/injection, schedule: Q01DX009 (ip), vehicle: saline
  survivor count: 0 of 6

## CC(=O)NC(CCl)(OC(C)=O)C(=O)OCc1ccc([N+](=O)[O-])cc1 (stereo not given)
dose: 100.0 mg/kg/injection, schedule: Q01DX001 (ip), vehicle: Klucel (hydroxypropylcellulose) (HPC)
  survivor count: 6 of 6
dose: 200.0 mg/kg/injection, schedule: Q01DX001 (ip), vehicle: Klucel (hydroxypropylcellulose) (HPC)
  survivor count: 6 of 6
dose: 400.0 mg/kg/injection, schedule: Q01DX001 (ip), vehicle: Klucel (hydroxypropylcellulose) (HPC)
  survivor count: 6 of 6

## COc1ccc2c(NCCCCCCCCCCNc3c4ccccc4nc4cc(OC)ccc34)c3ccccc3nc2c1
dose: 0.62 mg/kg/injection, schedule: Q01DX009 (ip), vehicle: other
  T/C: 144 % of control
dose: 1.25 mg/kg/injection, schedule: Q01DX009 (ip), vehicle: other
  T/C: 145 % of control
dose: 10.0 mg/kg/injection, schedule: Q01DX009 (ip), vehicle: other
  survivor count: 5 of 6
dose: 20.0 mg/kg/injection, schedule: Q01DX009 (ip), vehicle: other
  survivor count: 0 of 6

## CC(C)NC(=O)OCc1c(COC(=O)NC(C)C)c(-c2ccc(F)c(F)c2)n2c1CCC2
dose: 1.56 mg/kg/injection, schedule: Q01DX009 (ip), vehicle: distilled water + Tween-80
  T/C: 126 % of control
dose: 6.25 mg/kg/injection, schedule: Q01DX009 (ip), vehicle: distilled water + Tween-80
  T/C: 149 % of control
dose: 100.0 mg/kg/injection, schedule: Q01DX009 (ip), vehicle: distilled water + Tween-80
  survivor count: 6 of 6
dose: 200.0 mg/kg/injection, schedule: Q01DX009 (ip), vehicle: distilled water + Tween-80
  survivor count: 3 of 6

## CC(C)c1ccc(/C=N\NC(=S)N/N=C\c2ccc(C(C)C)cc2)cc1
[2]
  survivor count: 6 of 6
[3]
  survivor count: 6 of 6

## Cc1c2cc3c(cc2cc2c4cc5c(cc4cc[n+]12)OCO5)OCO3 (tested in a mixture with another compound)
dose: 0.66 mg/kg/injection, schedule: Q04DX003 (ip), vehicle: saline
  T/C: 126 % of control
dose: 1.0 mg/kg/injection, schedule: Q04DX003 (ip), vehicle: saline
  T/C: 131 % of control
dose: 2.2 mg/kg/injection, schedule: Q04DX003 (ip), vehicle: saline
  T/C: 140 % of control
dose: 3.3 mg/kg/injection, schedule: Q04DX003 (ip), vehicle: saline
  T/C: 131 % of control

## Cc1cc(N2C(=O)CCSC2=S)ccc1Cl
[3]
  T/C: 133 % of control
[4]
  T/C: 142 % of control [5 of 6 alive]
[5]
  T/C: 141 % of control
dose: 400.0 mg/kg/injection, schedule: Q01DX009 (ip), vehicle: Klucel (hydroxypropylcellulose) (HPC)
  survivor count: 4 of 6

## CCCCCCCCCCCCOC(=O)c1ccc(OP(=O)(O)OCc2ccccc2)cc1
[4]
  survivor count: 1 of 6
[5]
  survivor count: 4 of 6

## CCOC1CC2C(=O)C(CC)=C(OC)CC2(CC)CO1 (stereo not given)
dose: 240.0 mg/kg/injection, schedule: Q01DX005 (ip), vehicle: saline with Tween-80
  survivor count: 1 of 6

## CC(=O)NC1=CC(=Nc2ccc(N(C)C)cc2)C=CC1=O
[6]
  survivor count: 0 of 5
[7]
  survivor count: 0 of 5
[8]
  survivor count: 0 of 5

## [Se]=P(c1ccccc1)(N1CCOCC1)N1CCOCC1
dose: 55.0 mg/kg/injection, schedule: Q01DX001 (ip), vehicle: Klucel (hydroxypropylcellulose) (HPC)
  survivor count: 1 of 6

## CCN(CC)CCCNC(=O)C(c1ccccc1)c1ccccc1
dose: 100.0 mg/kg/injection, schedule: Q01DX005 (ip), vehicle: saline
  survivor count: 3 of 5
dose: 200.0 mg/kg/injection, schedule: Q01DX005 (ip), vehicle: saline
  survivor count: 0 of 5

## COC(=O)C1c2ccccc2CC(=O)N1NC(C)=O (stereo not given)
[5]
  survivor count: 1 of 6

## C=CCOc1cc2c(cc1C(C)c1ccc(OCC)cc1)OCO2 (stereo not given)
dose: 400.0 mg/kg/injection, schedule: Q01DX005 (ip), vehicle: saline with Tween-80
  T/C: 141 % of control

## COC(=O)C1=C(C(=O)OC)P2(C)(C)ON=C(c3c(C)cc(C)cc3C)N2C1(c1ccccc1)c1ccccc1
dose: 100.0 mg/kg/injection, schedule: Q01DX005 (ip), vehicle: Klucel (hydroxypropylcellulose) (HPC)
  survivor count: 6 of 6

## NC(=O)NC(C/[N+]([O-])=N/O)C(=O)O (stereo not given)
dose: 200.0 mg/kg/injection, schedule: Q01DX009 (ip), vehicle: water
  survivor count: 5 of 5

## O=C1C=C(C2=CC(=O)c3cccc(O)c3C2=O)C(=O)c2c(O)cccc21
[2]
  survivor count: 1 of 6
[3]
  survivor count: 0 of 6
[4]
  survivor count: 0 of 6
[5]
  survivor count: 0 of 6

## COc1cc(OC)c(NC(=O)Oc2cc(C)c(I)cc2C)cc1Cl
dose: 50.0 mg/kg/injection, schedule: Q01DX009 (ip), vehicle: saline + alcohol
  survivor count: 5 of 6

## CC1CCC2(C)CCC3(C)C4=CCC5C(C)(C)C(O)CCC5(C)C4CCC3(C)C2C1C (stereo not given)
dose: 100.0 mg/kg/injection, schedule: Q04DX003 (ip), vehicle: other
  survivor count: 6 of 6

## O=C(N=[N+]([O-])c1ccccc1)c1ccccc1
dose: 50.0 mg/kg/injection, schedule: Q04DX003 (ip), vehicle: Klucel (hydroxypropylcellulose) (HPC)
  survivor count: 0 of 6
dose: 100.0 mg/kg/injection, schedule: Q04DX003 (ip), vehicle: Klucel (hydroxypropylcellulose) (HPC)
  survivor count: 0 of 6
dose: 200.0 mg/kg/injection, schedule: Q04DX003 (ip), vehicle: Klucel (hydroxypropylcellulose) (HPC)
  survivor count: 0 of 6

## COc1ccc(C=C2C(=O)C=CC2=O)cc1
dose: 25.0 mg/kg/injection, schedule: Q04DX002 (ip), vehicle: saline with Tween-80
  survivor count: 0 of 6
dose: 50.0 mg/kg/injection, schedule: Q04DX002 (ip), vehicle: saline with Tween-80
  survivor count: 1 of 6
dose: 100.0 mg/kg/injection, schedule: Q04DX002 (ip), vehicle: saline with Tween-80
  survivor count: 0 of 6

## CN(C)Cc1cc(CN(C)C)c(O)c(CN(C)C)c1
[1]
  survivor count: 2 of 6
dose: 400.0 mg/kg/injection, schedule: Q01DX009 (ip), vehicle: saline with Tween-80
  survivor count: 0 of 6

## CCC(c1ccc(OC)cc1)C(NCC(=O)N/N=C/c1ccccc1[N+](=O)[O-])c1ccc(OC)cc1 (stereo not given)
dose: 100.0 mg/kg/injection, schedule: Q01DX001 (ip), vehicle: saline with Tween-80
  survivor count: 6 of 6
dose: 200.0 mg/kg/injection, schedule: Q01DX001 (ip), vehicle: saline with Tween-80
  survivor count: 6 of 6

## C=C=CN1C(C)=CC(=C2C(=O)c3ccccc3C2=O)C=C1C
dose: 200.0 mg/kg/injection, schedule: Q01DX005 (ip), vehicle: Klucel (hydroxypropylcellulose) (HPC)
  T/C: 127 % of control
dose: 240.0 mg/kg/injection, schedule: Q01DX005 (ip), vehicle: Klucel (hydroxypropylcellulose) (HPC)
  survivor count: 1 of 6

## CCN(CC)CC(C)Nc1ccc(C)c2sc3ccccc3c(=O)c12 (stereo not given)
dose: 150.0 mg/kg/injection, schedule: Q01DX009 (ip), vehicle: saline
  T/C: 145 % of control [5 of 6 alive]

## CC1(O)C(c2ccccc2)=C(c2ccccc2)C2(c3ccccc3)Oc3c(Cl)c(Cl)c(Cl)c(Cl)c3OC12c1ccccc1 (stereo not given)
dose: 100.0 mg/kg/injection, schedule: Q01DX009 (ip), vehicle: saline with Tween-80
  survivor count: 6 of 6
[1]
  survivor count: 6 of 6

## CCn1c2ccccc2c2cc(/C=N/N=C/c3ccc4c(c3)c3ccccc3n4CC)ccc21
dose: 12.5 mg/kg/injection, schedule: Q01DX005 (ip), vehicle: saline with Tween-80
  survivor count: 5 of 5
dose: 25.0 mg/kg/injection, schedule: Q01DX005 (ip), vehicle: saline with Tween-80
  survivor count: 5 of 5
[6]
  survivor count: 5 of 5
[7]
  survivor count: 5 of 5
[8]
  survivor count: 4 of 5

## C#CC(C)(C)Oc1ccc2c(=O)c(-c3ccc(OC)cc3)coc2c1
[8]
  survivor count: 6 of 6
